This series in a line: general procedure: solution-phase peptide synthesis; BOP; active esters (ONp, OTCP, OSu, ONb) with HOBt; NEM or DIPEA.
Setting [1] is: coupling step, HPLC reverse phase EPP.

The star is where a group is joined. Cbz = O=C(OCc1ccccc1)*; Boc = CC(C)(C)OC(=O)*; OBn = c1ccc(CO*)cc1

Boc-Ser-Arg-Gln-Gln-Gly-OMe, AcOH gave a step yield (late stage modification step) of 97.8%.
“Boc-Ser-Arg-Gln-Gln-Gly-Glu(OBzl)-Ser-Asn-Gln-Glu(OBzl)-Arg-Gly-Ala-Arg-Ala-Arg-Leu-NH2, HCl” gave a step yield (coupling step) of 80%.
Consider Boc-QLSA-OMe, for which, under “coupling step, HPLC EPP”, the “purity (crude or final not stated)” value amounted to 91%.
The substance “H-Ser-Arg-Gln-Gln-Gly-Glu(OBzl)-Ser-Asn-Gln-Glu(OBzl)-Arg-Gly-Ala-Arg-Ala- Arg-Leu-NH2, TFA, HCl” yielded a step yield (late stage modification step) of 97%.
On to Boc-E(OBn)SNQE(OBn)RG-OH, for which, for the setting “coupling step”, the step yield is on record as 80%.
“Boc-Ile-Phe-Thr-Asn-Ser-Tyr-Arg-Lys(Z)-Val-Leu-Gly-Gln-Leu-Ser-Ala-OCH3, HCl”: the step yield is, setting by setting: (coupling step) 86%; (coupling step, overall) 95%. Further, the “crude HPLC purity” value under setting [1] came out at 90%.
For the setting “coupling step”, Boc-K(Cbz)VLG-OMe had a step yield of 86%.
As to H-QE(OBn)RG-OH, under “coupling step”, the step yield is on record as 76%.
In the case of “Boc-Tyr-Arg(Z)-Val-Leu-Gly-Gln-Leu-Ser-Ala-OCH3, HCl”, under “coupling step”, the step yield came out at 90%. Moreover, under setting [1], the “crude HPLC purity” value is given as 92%.
Consider Boc-RK(Cbz)LL-OMe, for which, for the setting “coupling step”, the step yield is reported as 87%. Further, for the setting “coupling step, HPLC-EPP”, the “final HPLC purity” value is on record as 91.8%.
In turn, “Boc-Glu(OBzl)-Ser-Asn-Gln-Glu(OBzl)-Arg-Gly-Ala-Arg-Ala-Arg-Leu-NH2, HCl” showed a step yield (coupling step) of 75%. Moreover, the “crude HPLC purity” value under setting [1] stood at 70%.
“H-Asp(OBzl)-Ile-Met-Ser-Arg-Gln-Gln-Gly-Glu(OBzl)-Ser-Asn-Gln-Glu(OBzl)-Arg-Gly-Ala-Arg-Ala-Arg-Leu-NH2, TFA, HCl” yielded a step yield (late stage modification step) of 100%.
With Boc-E(OBn)SNQ-OH, the step yield by setting is: (coupling step, run 1) 90%; (coupling step, run 2) 71.9%.
Under “coupling step”, “Boc-Arg-Lys(Z)-Leu-Leu-Gln-Asp(OBzl)-Ile-Met-Ser-Arg-Gln-Gln-Gly-Glu (OBzl)-Ser-Asn-Gln-Glu(OBzl)-Arg-Gly-Ala-Arg-Ala-Arg-Leu-Nh 2, HCl” returned a step yield of 93%.
The substance “Boc-Tyr-Arg(HCl)-Lys(Z)-Val-Leu-Gly-OCH3” gave a step yield (coupling step) of 96%. Also, the “crude HPLC purity” value (coupling step, HPLC EPP) is on record as 93.81%.
In turn, “Boc-Glu(OBzl)-Arg-Gly-Ala-Arg-Ala-Arg-Leu-NH2, 3 HCl” had a step yield (coupling step) of 80%. The “crude HPLC purity” value under setting [1] came to 95%.
Substance Arg (NO2)-Ala-Arg (NO2)-Leu-NH2 came in with a step yield (coupling step) of 85%.
For the setting “coupling step”, Boc-E(OBn)SNQE(OBn)RGARARL-NH2 gave a step yield of 81%.
Z-Ala-Arg (NO2)-Ala-Arg (NO2) Leu-NH2 came in with a step yield (coupling step) of 76%.
H-SNQE(OBn)RG-OH came in with a step yield (coupling step) of 77%.
“Boc-Gln-Asp(OBzl)-Ile-Met-Ser-Arg-Gln-Gln-Gly-Glu(OBzl)-Ser-Asn-Gln-Glu(OBzl)-Arg-Gly-Ala-Arg-Ala-Arg-Leu-NH2, HCl”: the step yield (coupling step) was 100%.
For the setting “coupling step”, H-NQE(OBn)RG-OH displayed a step yield of 85%.
The substance “H-Glu(OBzl)-Arg-Gly-Ala-Arg-Ala-Arg-Leu-NH2, TFA, HCl” showed a step yield (late stage modification step) of 100%.
Substance Boc-Tyr-Arg(HCl)-Lys(Z)-Val-Leu-Gly-OH had a step yield (late stage modification step) of 74.7%. Under “late stage modification step, HPLC-EPP”, the “purity (crude or final not stated)” value stood at 91.52%.

These data come from patent US4704450 (dated 1987).
